# According to PubChem BioAssay AID540276 (National Center for Advancing Translational Sciences (NCATS), 2011):
# Screen size: about 300,000 compounds; about 5,400 (1.8%) were called active. This list was built around the results that the source calls inconclusive (neither active nor inactive); the mix of calls is not that of the screen. Calls come from the whole dose curve; tested in HEK293 cells. Potencies of inconclusive entries are doubtful fits and often do not repeat.
# Experiment: qHTS for inhibitors of binding or entry into cells for Marburg Virus
# Settings: Marburg virus pseudotyped entry inhibition, cell reporter; activity change, negative = inhibition: at 37.8 µM (top of the series) unless noted
# % is set by controls: 0 for no effect and ±100 for the full control effect; potency is the fitted concentration of half-maximal effect.
SMILES,"activity change, negative = inhibition",Potency
COc1ccccc1-c1noc(-c2ccc(NCCc3ccccc3)c([N+](=O)[O-])c2)n1,inactive: 2.82% [at 46.1 µM],–
Cc1ccc(OCCNC(=O)c2cccc(S(=O)(=O)NCc3ccccc3)c2)cc1,–,active: 6.31 µM
CCS(=O)(=O)c1ncc(Cl)c(C(=O)N(Cc2ccccc2)Cc2ccco2)n1,–,"inconclusive: 12.6 µM [inhibitor, partial curve, poor fit]"
Cc1nc2c(c(C)nn2-c2ccccc2)c(C)c1CCC(=O)Nc1ccc(CN2CCCC2)cc1,–,active: 10 µM
CCc1ccc2oc(=O)cc(CN3CCCCC3C)c2c1 (centres undefined),–,"inconclusive: 29.1 µM [inhibitor, single point]"
O=C(CNc1cccc(S(=O)(=O)N2CCCCC2)c1)Nc1cccc(F)c1,inactive: -28.8%,–
Cc1ccccc1N1C(N)=NC(N)=NC1(C)C,–,"inconclusive: 14.1 µM [activator, single point]"
CCOc1cc(C(=O)Nc2cc(C)ccn2)cc(OCC)c1OCC,–,"inconclusive: 25.9 µM [inhibitor, partial curve, poor fit]"
O=C(NC1CCCCC1)c1ccccc1NC(=S)NC(=O)C1CCC1,–,"inconclusive: 0.562 µM [activator, full curve, poor fit]"
COc1cccc(S(=O)(=O)NCc2ccc(C(=O)Nc3cccc(Cl)c3)cc2)c1,–,"inconclusive: 35.5 µM [inhibitor, single point]"
COC(=O)c1ccc(CSc2nc3ccc(S(=O)(=O)N4CCOCC4)cc3[nH]2)cc1,–,"inconclusive: 3.55 µM [inhibitor, partial curve, poor fit]"
COc1ccc(N2CCN(C(=O)c3ccc(CS(=O)Cc4ccc(C)cc4)o3)CC2)cc1 (centres undefined),inactive: -6.01% [at 46.1 µM],–
Cc1ccc(CNc2ncnc3c2cnn3C2CCCCO2)cc1 (centres undefined),inactive: -3% [at 46.1 µM],–
CCc1ncc(/C=C2\C(=O)Nc3ccccc32)[nH]1,–,"inconclusive: 20 µM [inhibitor, partial curve, poor fit]"
O=C(N/N=C/c1ccncc1)c1cc([N+](=O)[O-])cc([N+](=O)[O-])c1O,inactive: 19.3%,–
CCN1C(=O)NC(c2ccc(Br)cc2)C(C(C)=O)=C1C (centres undefined),–,"inconclusive: 2.11 µM [inhibitor, single point]"
Cc1ccc(N2CCN(C(=O)CCc3c(C)nc4ncnn4c3C)CC2)c(C)c1,inactive: 1.93% [at 46.1 µM],–
COC(=O)C(=C/C(C)=C/c1cccnc1)C(=O)OC,–,"inconclusive: 11.2 µM [inhibitor, partial curve, poor fit]"
Fc1ccc(C2c3[nH]c4ccccc4c3CCN2Cc2cccn2-c2ncccn2)cc1 (centres undefined),–,"inconclusive: 5.01 µM [inhibitor, full curve, poor fit]"
N/C(=N\OC(=O)c1ccc(Cl)cc1)c1ccc(Cl)cc1,–,"inconclusive: 2 µM [activator, partial curve, poor fit]"
O=C(CN1C(=O)C2CCCCC2C1=O)Nc1nc(-c2ccc(F)cc2)cs1 (centres undefined),inactive: 5.99%,–
COCCCN1C(=O)c2ccc(C(=O)NCc3ccco3)cc2C1=O,inactive: 11.4%,–
COc1ccc(NC(=O)c2c(C)oc3ccc(O)c(CN4CCCC(C)C4)c23)cc1Cl (centres undefined),–,"inconclusive: 4.47 µM [inhibitor, full curve, poor fit]"

# Fetched one by one from the list above (3):
SMILES,"activity change, negative = inhibition",Potency
COc1ccccc1-c1noc(-c2ccc(NCCc3ccccc3)c([N+](=O)[O-])c2)n1,inactive: 2.82% [at 46.1 µM],–
O=C(CN1C(=O)C2CCCCC2C1=O)Nc1nc(-c2ccc(F)cc2)cs1 (centres undefined),inactive: 5.99%,–
Fc1ccc(C2c3[nH]c4ccccc4c3CCN2Cc2cccn2-c2ncccn2)cc1 (centres undefined),–,"inconclusive: 5.01 µM [inhibitor, full curve, poor fit]"

# The list continues.

SMILES,"activity change, negative = inhibition",Potency
CC1(C)OC(=O)C(=CNc2ccccc2)C(=O)O1,inactive: 1.04%,–
COc1ccc(C(CC(=O)Nc2ccc(F)cc2)c2ccccc2)cc1 (centres undefined),–,"inconclusive: 6.31 µM [inhibitor, partial curve, poor fit]"
COCCn1c(C)cc(C(=O)CSc2nc3ccccc3s2)c1C,–,"inconclusive: 1.64 µM [inhibitor, full curve, poor fit]"
O=C(Nc1ccc(Cl)cc1)Nc1csc([N+](=O)[O-])c1,–,"inconclusive: 10 µM [inhibitor, partial curve, poor fit]"
CN(C)CCNC(=O)C1CC(=O)N(c2ccc(F)c(Cl)c2)C1 (centres undefined),inactive: 18.5%,–
CCCOc1ccc(/C=C/C(=O)Nc2ccc([N+](=O)[O-])cc2)cc1,–,active: 1.78 µM
CCCCc1c(C)nn(-c2nnc3c4ccccc4n(C)c3n2)c1C,–,inactive
N#Cc1c(C(F)(F)F)cc(-c2cccs2)nc1SCC(=O)Nc1ccc(Cl)cc1,inactive: 4.27% [at 46.1 µM],–
Cc1ccn2c(Nc3ccc4c(c3)OCO4)c(-c3ccco3)nc2c1,–,"inconclusive: 5.62 µM [activator, single point]"
COc1ccccc1N=C(C)C1=C(O)CC(c2ccccc2)CC1=O (centres undefined),–,"inconclusive: 0.631 µM [inhibitor, full curve, poor fit]"
CCC(c1nnnn1CCOC)N(Cc1cc2c(C)cc(C)cc2[nH]c1=O)CC1CCCO1 (centres undefined),inactive: -18%,–
COC(=O)c1ccc(N=Nc2ccccc2)cc1,–,"inconclusive: 35.5 µM [inhibitor, single point]"
CN1/C(=C\C(=O)C[n+]2cccc(Br)c2)C(C)(C)c2ccccc21,inactive: -0.937%,–
Cc1ccc(C(=O)NC2CCCCC2)cc1S(=O)(=O)N1CCCC1,–,"inconclusive: 1 µM [activator, single point]"
CN1Cc2c(N3CCOCC3)nc3sc(C(=O)c4ccc(Br)cc4)c(N)c3c2CC1(C)C,–,"inconclusive: 11.2 µM [inhibitor, partial curve, poor fit]"
Brc1ccc2nc(-c3ccncc3)c(NC3CCCC3)n2c1,inactive: -29.7% [at 46.1 µM],–
N#Cc1ccccc1CSc1nnc(-c2ccccc2)o1,–,"inconclusive: 0.316 µM [activator, full curve, poor fit]"
Cc1ccc(NS(=O)(=O)c2ccc(NC(=O)c3cccs3)cc2)c(C)c1,–,"inconclusive: 20 µM [inhibitor, partial curve, poor fit]"
COc1ccc(CN2CCC(n3nccc3NC(=O)C3CCCC3)CC2)c(OC)c1,–,"inconclusive: 11.2 µM [inhibitor, partial curve, poor fit]"
CCN(CC)CCN(Cc1cc2ccc(C)cc2[nH]c1=O)C(=S)Nc1ccccc1C(=O)OC,–,active: 2 µM
COc1ccc(-c2cnnc(N/N=C/c3c(C)nn(-c4ccccc4)c3Cl)n2)cc1,–,"inconclusive: 1.58 µM [inhibitor, partial curve, poor fit]"
Cc1cc(NC(=O)CCC(=O)N(Cc2ccccc2)C2(C(=O)NC3CCCCC3)CCCC2)no1,–,"inconclusive: 13 µM [inhibitor, partial curve, poor fit]"
Cc1ccc(-n2c(=O)c3c(C)c(C)sc3n(CC(=O)c3ccc(Cl)cc3)c2=O)cc1C,–,"inconclusive: 11.2 µM [inhibitor, partial curve, poor fit]"

SMILES,"activity change, negative = inhibition",Potency
O=C(Nc1ccc(-c2nc3ncccc3o2)cc1)c1ccc([N+](=O)[O-])o1,inactive: -3.49% [at 46.1 µM],–
COc1cc(/C=N/Nc2nc3ccccc3[nH]c2=O)ccc1O,–,"inconclusive: 2.82 µM [activator, full curve, poor fit]"
O=C(Oc1ccc2ccccc2c1)c1ccccc1,inactive: 27.8%,–
O=S(=O)(c1cccc(NC(=S)N2CCN(c3ccccc3F)CC2)c1)C(F)F,inactive: 0.369%,–
CCOC(=O)C1=C(Cc2ccc(Cl)cc2)C(=O)c2ccccc2C1=O,–,"inconclusive: 18.3 µM [inhibitor, partial curve, poor fit]"
O=C(CSc1nc2ccccc2[nH]1)c1ccc2c(c1)OCO2,inactive: 4.66%,–
COc1ccc(NS(=O)(=O)c2cccc(C(=O)N(C)Cc3ccc(SC)cc3)c2)cc1,–,"inconclusive: 14.1 µM [inhibitor, single point]"
Cc1ccc(NC(=O)N2CCC(NC(=O)c3ccccc3C)CC2)cc1,inactive: 14.2%,–
COc1ccc(OC)c(/C=C/C(=O)N2CCN(S(=O)(=O)c3ccc(C)cc3C)CC2)c1,–,"inconclusive: 35.5 µM [inhibitor, single point]"
COc1ccc(N(CC(=O)Nc2cccc(SC)c2)S(C)(=O)=O)cc1,inactive: 21.7%,–
Cc1ccc(NC(=O)Cn2cc(C(F)(F)F)cc(Cl)c2=O)cc1S(=O)(=O)N1CCCCC1,–,"inconclusive: 35.5 µM [inhibitor, single point]"
CC(=O)Nc1ccc(S(=O)(=O)N(C)CC(=O)Nc2ccccc2N2CCOCC2)cc1,inactive: -4.63%,–
Cc1ccc(S(=O)(=O)N2CCOCC2)cc1NC(=O)COC(=O)c1ccc(Cl)s1,–,"inconclusive: 5.62 µM [inhibitor, full curve, poor fit]"
Cn1nc(CC(=O)Nc2cccc3ncccc23)c2ccccc2c1=O,–,"inconclusive: 4.47 µM [inhibitor, partial curve, poor fit]"
O=C(C1CCCO1)N1CCN(C(=S)Nc2ccc(Cl)cc2)CC1 (centres undefined),–,"inconclusive: 5.62 µM [activator, single point]"
c1ccc2c(CCc3ccncc3)cccc2c1,–,"inconclusive: 7.08 µM [inhibitor, partial curve, poor fit]"
O=C(CNC(=O)c1ccccc1F)N/N=C/c1ccc2c(c1)OCO2,inactive: 2.63% [at 46.1 µM],–
CCn1c(=O)cc(OCC(=O)NCc2ccc(F)cc2Cl)c2ccccc21,inactive: -17% [at 46.1 µM],–
CCOC(=O)c1ccc(N2C(=O)c3[nH]nc(-c4ccc(OC)cc4)c3C2c2ccc(C)cc2)cc1 (centres undefined),–,"inconclusive: 28.2 µM [inhibitor, partial curve, poor fit]"
COc1ccc(/C=N/n2cnc3c([nH]c4ccc(F)cc43)c2=O)cc1CSc1ccccn1,–,"inconclusive: 4.47 µM [inhibitor, single point]"
CCOC(=O)N1CCC(n2c(SCC(=O)c3ccccc3)nc3ccsc3c2=O)CC1,–,"inconclusive: 29.1 µM [inhibitor, single point]"
COc1ccc(C(=O)NCCc2c[nH]c3ccccc23)cc1,–,"inconclusive: 6.31 µM [activator, single point]"
Cc1cc(Cl)c(S(=O)(=O)N2CCCC2)cc1OCC(=O)NC1CCCCC1,–,"inconclusive: 6.51 µM [inhibitor, full curve]"
